# Hit rate of the full screen: of about 360,000 compounds, about 7,500 (2.1%) were called active. Inconclusive results, whose numbers are uncertain, are shown with a selection of clear calls. Calls follow the shape of the dose curve; as a rule, active = well fitted inhibition curve with a large enough effect; inconclusive = small, poorly fitted or top-dose-only effect, or effect the other way; inactive = flat fitted curve, though single readings scatter. Where the call is inconclusive, the potency comes from a doubtful curve fit.
# Test: Nrf2 qHTS screen for inhibitors; also: nearly all actives have a fitted effect of over 60% in size
# Conditions: A549 ARE-Fluc reporter, luciferase luminescence, 18-24 h; activity change, negative = inhibition: at 46 µM (top of the series)
# Outline: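 A549 ARE_Fluc cells, 5000/well, 5% FBS OPTI-MEM; compounds in dose-response, 18-24 h at 37 °C/5% CO2; CellTiter-Fluor viability read (Ex 405/Em 525), then BugLite luciferase luminescence = Nrf2 activity.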
# % is scaled to controls: 0 for no effect and ±100 for the full control effect; potency is read from the fitted curve at half-maximal effect.
SMILES,Potency,"activity change, negative = inhibition"
O=C1N=C(N2CCCCC2)SC1=C1CCCCC1,"inconclusive: 32.6 µM [activator, partial curve, poor fit]",–
CCOC(=O)c1c(C)n(Cc2ccccc2)c2ccc(OCC(O)Cn3nc(C)nc3C)cc12 (centres undefined),"inconclusive: 23.1 µM [falling, partial curve, poor fit]",–
O=c1[nH]c(O)c(/C=C2/C=CC(c3cc(Cl)ccc3Cl)=N2)c(=O)[nH]1,"inconclusive: 23.1 µM [falling, single point]",–
COc1ccc(CC(=O)Nc2ccc(C#N)c(Cl)c2)cc1S(=O)(=O)N1CCOCC1,"inconclusive: 29.1 µM [falling, single point]",–
CC(C)N1C(=S)SC(C)(C)C1n1oc(=O)n(-c2ccc(Cl)c(Cl)c2)c1=O (centres undefined),"inconclusive: 0.0041 µM [falling, full curve, poor fit]",–
CN(C)C(=O)O/N=C(\N)COc1ccc(C(C)(C)C)cc1,"inconclusive: 23.1 µM [falling, single point]",–
CN1C(=O)C(=Cc2ccc(N3CCCCCC3)cc2)C(=O)N(C)C1=O,–,inactive: -1.69%
O=C(O)c1cc[c]([Sb](=[O])([OH])[OH])cc1[N+](=O)[O-],–,inactive: 13.5%
C[N+]1=C(/C=C/Nc2ccccc2)C(C)(C)c2ccccc21,"inconclusive: 23.1 µM [falling, single point]",–
Cc1cccc(-n2c(O)c(/C=N/Nc3nc4c(c(=O)n(C)c(=O)n4C)n3C)c(=O)[nH]c2=S)c1,–,inactive: 14%
COC(=O)C1=C(c2cccc(OCc3ccccc3)c2)C[C@@H]2CC[C@H]1N2C(=O)NCCOc1ccc(OC)cc1,active: 14.6 µM,–
CC(C)c1oc(=O)cc2c1[C@@H](O)[C@H]1OC(=O)[C@@]3(C)CC[C@@H](O)[C@@]2(C)C13 (some centres undefined),active: 18.4 µM,–
Cn1cccc1C(=O)OCC(=O)NCc1cccs1,"inconclusive: 29.1 µM [activator, single point]",–
Cc1c(P(=S)(c2ccccc2)c2ccccc2)[n+]2ccccc2n1C/C=C/c1ccccc1,"inconclusive: 29.1 µM [falling, single point]",–
Nc1nc(F)nc2c1ncn2[C@@H]1O[C@H](CO)[C@@H](O)[C@H]1O,active: 0.92 µM,–
CN(C)c1ccc(/C=C/C=C2/C(=O)NC(=O)N(c3ccccc3)C2=O)cc1,"inconclusive: 11.6 µM [activator, partial curve, poor fit]",–
CCOC(=O)N(CC)c1ccc(C(O)(C(=O)OC)C(F)(F)F)cc1 (centres undefined),"inconclusive: 0.326 µM [falling, full curve, poor fit]",–
O=C(NC1CCCCC1)c1ccc(CSc2nc3ccncc3n2Cc2ccc(F)cc2)cc1,"inconclusive: 13 µM [falling, partial curve]",–
CCOP(=S)(OCC)Oc1ccc2c(C)c(Cl)c(=O)oc2c1,"inconclusive: 20.6 µM [falling, partial curve]",–
Cn1c(=O)c2c(nc(-c3ccc(N(CCCl)CCCl)cc3)n2C)n(C)c1=O,"inconclusive: 16.4 µM [falling, single point]",–
Cc1c(C(=O)N2CCC3(CC2)OCCO3)sc2ncnc(N3CCN(c4ccccn4)CC3)c12,"inconclusive: 32.6 µM [falling, single point]",–

SMILES,Potency,"activity change, negative = inhibition"
CCOC(=O)[C@]12Cc3cc4c(cc3[C@H]1N(Cc1ccccc1)C(=O)c1ccccc12)OCO4,"inconclusive: 20.6 µM [falling, single point]",–
COC(=O)C1=C(c2c(C)noc2C)C[C@@H]2CC[C@H]1N2C(=O)NCc1ccc2c(c1)OCO2,–,inactive: -8.27%
Cn1c(=O)n(C)c2cc(CNCCc3ccc(F)cc3)ccc21,–,inactive: -28.1%
CC(=O)O[C@H]1C(=O)[C@@]2(C)C([C@H](OC(=O)c3ccccc3)[C@]3(O)C[C@H](O)C(C)=C1C3(C)C)[C@]1(OC(C)=O)CO[C@@H]1C[C@H]2O (some centres undefined),–,inactive: 6.05%
Cc1ccc(NC(=O)Cn2cc(C(=O)c3ccccc3)c3ccccc32)cc1,"inconclusive: 20.6 µM [falling, single point]",–
COC(=O)C(O)(c1ccc(NC(=O)NC2CCCCC2)cc1)C(F)(F)F (centres undefined),"inconclusive: 1.84 µM [activator, full curve, poor fit]",–
COCCn1cc(C(=O)N2CCC3(CC2)OCCO3)c2c3ccccc3n(C)c2c1=O,–,inactive: -1.75%
C=C1C[C@]2(O)[C@@]3(C)CCC(=O)C(C)(C)C3=C(O)C(=O)[C@@]2(C)[C@@H]2C(=O)O[C@@](C)(C(=O)OC)C(=O)[C@@]12C,"inconclusive: 20.6 µM [activator, partial curve]",–
N/C(=N\OC(=O)CCC1CCCC1)c1ccccc1,"inconclusive: 9.2 µM [activator, partial curve, poor fit]",–
COc1ccc(CC(=O)NC(=S)NNC(=O)COc2c(C)cccc2C)cc1,"inconclusive: 20.6 µM [falling, partial curve, poor fit]",–
CC1CCCCN1CC(=O)c1ccc2cc[nH]c2c1 (centres undefined),"inconclusive: 3.66 µM [activator, partial curve, poor fit]",–
COc1ccc(C(=O)C2CCCN(Cc3cnc(C)s3)C2)cc1OC (centres undefined),"inconclusive: 5.17 µM [falling, single point]",–
c1ccc(-c2ccc3c(n2)CCCO3)cc1,"inconclusive: 23.1 µM [activator, partial curve, poor fit]",–
O=c1[nH]c(=O)n(-c2cccc3ccccc23)c(O)c1C=NCc1ccc2c(c1)OCO2,–,inactive: -10.8%
CC(=NCCC1=CCCCC1)c1c(O)n(-c2ccccc2)c(=O)[nH]c1=O,"inconclusive: 4.11 µM [falling, partial curve, poor fit]",–
CC(C)CCn1c(N)c(C(=O)OCC2CCCO2)c2nc3ccccc3nc21 (centres undefined),"inconclusive: 32.6 µM [falling, single point]",–
CCCCn1c(=O)c(C(=O)NCc2ccco2)c(O)c2ccccc21,"inconclusive: 32.6 µM [falling, single point]",–
CCc1ccc(CNn2cnnc2SCC(=O)NC(C)(C)C)cc1,"inconclusive: 29.1 µM [falling, single point]",–
COc1cc(OC)c(OC)cc1CNC(C)C(O)c1ccccc1 (centres undefined),–,inactive: -4.99%
O=C(OCC(=O)N1CCCCC1)c1cc(S(=O)(=O)N2CCOCC2)c(Cl)cc1Cl,"inconclusive: 4.11 µM [activator, full curve, poor fit]",–
S=P(c1ccccc1)(c1ccccc1)c1c[nH]c2ccccc12,–,inactive: -5.16%
COC(=O)C1=C(c2ccc(C(C)=O)cc2)C[C@@H]2CC[C@H]1N2C(=O)N1CCC(C)CC1,–,inactive: 0.495%

# Part of the list above, set out differently.
SMILES	Potency	activity change, negative = inhibition
C=C1C[C@]2(O)[C@@]3(C)CCC(=O)C(C)(C)C3=C(O)C(=O)[C@@]2(C)[C@@H]2C(=O)O[C@@](C)(C(=O)OC)C(=O)[C@@]12C	inconclusive: 20.6 µM [activator, partial curve]	–
c1ccc(-c2ccc3c(n2)CCCO3)cc1	inconclusive: 23.1 µM [activator, partial curve, poor fit]	–
O=c1[nH]c(=O)n(-c2cccc3ccccc23)c(O)c1C=NCc1ccc2c(c1)OCO2	–	inactive: -10.8%
CCc1ccc(CNn2cnnc2SCC(=O)NC(C)(C)C)cc1	inconclusive: 29.1 µM [falling, single point]	–

# Following part.

SMILES,Potency,"activity change, negative = inhibition"
Cc1cccc(N=Nc2ccc(N(C)C)cc2)c1,"inconclusive: 25.9 µM [activator, partial curve]",–
CC(=NCc1ccc2c(c1)OCO2)c1c(O)n(C)c(=O)n(C)c1=O,"inconclusive: 23.1 µM [falling, single point]",–
CCCN1CCCC(C(=O)c2cc(C)c(OC)c(C)c2)C1 (centres undefined),–,inactive: -16.3%
CCC(=O)OC1CCC2C3CCC4CC(=O)C=CC4(C)C3CCC12C (centres undefined),"inconclusive: 20.6 µM [falling, partial curve, poor fit]",–
COC(=O)C1=C(c2ccccc2OCc2ccccc2)C[C@@H]2CC[C@H]1N2C(=O)NCc1ccc(N(C)C)cc1,"inconclusive: 16.4 µM [falling, single point]",–
OCC1(CO)COC(c2cccnc2)N1 (centres undefined),"inconclusive: 6.51 µM [falling, single point]",–
CCOc1cc2c(cc1OCC)-n1cccc1C(c1ccc(C(C)C)cc1)NC2 (centres undefined),active: 23.1 µM,–
C[C@H]1CC[C@@H]2[C@@H](C)[C@H]3C(C[C@H]4C5CC[C@H]6C[C@@H](O)CC[C@]6(C)C5CC[C@]34C)N2C1 (some centres undefined),–,inactive: 18.2%
CN(C(=O)CNC(=O)OCc1ccccc1)c1ccc(Br)cc1C(=O)c1ccccc1Cl,"inconclusive: 29.1 µM [falling, single point]",–
CC(C)c1ccc2oc(-c3ccc(NC(=O)c4cc5ccccc5o4)cc3)nc2c1,"inconclusive: 3.66 µM [falling, full curve]",–
C=CCNC(=O)c1c(N)n(Cc2ccco2)c2nc3ccccc3nc12,"inconclusive: 32.6 µM [falling, single point]",–
CCOc1ccccc1NC(=O)c1sc2nc3c(cc2c1N)CN(Cc1ccccc1)CC3,"inconclusive: 14.6 µM [falling, partial curve]",–
O=C(c1cc(-c2cccc(Cl)c2)on1)N1CCOCC1,"inconclusive: 23.1 µM [activator, single point]",–
Cc1cccc(Cc2cnc(NC(=O)c3ccc4c(c3)CC(c3ccccc3)OC4=O)s2)c1 (centres undefined),"inconclusive: 14.6 µM [falling, partial curve, poor fit]",–
Cc1ccc(NC(=O)Nc2cc3c(cc2N2CCCCC2)n(C)c(=O)n3C)cc1Cl,active: 20.6 µM,–
Cc1ccc2c(c1)C(Cc1nc3ccccc3c(=O)n1-c1ccc(Br)cc1)C(=O)N2 (centres undefined),"inconclusive: 18.4 µM [falling, single point]",–
Cc1c(C=O)c2ccccc2n1Cc1ccc([N+](=O)[O-])cc1,"inconclusive: 7.31 µM [falling, full curve, poor fit]",–
Cc1ccc(CN2C(=O)CN=C(c3ccccc3)c3ccccc32)cc1,–,inactive: -16.2%
Nc1ccc(CCN2CCCC2)cc1,–,inactive: 3.33%
C[n+]1c(-c2ccccc2)cc(CCCCc2cc(-c3ccccc3)[n+](C)c(-c3ccccc3)c2)cc1-c1ccccc1,–,inactive: -15%
